Experimental data as given in patent US9084422B2, “Anthranilamides compositions” (E I DU PONT DE NEMOURS AND COMPANY, priority 2001, dated 2015).
Some results were stated once for a whole list of compounds, not compound by compound.

Assays:
Type in all cases: in vivo
[1] = tested on: fall armyworm (Spodoptera frugiperda); assay: Test B: control of fall armyworm, foliar spray on corn; details: sprayed at 50 ppm; corn (maize) plant; 1-day-old larvae; assessed after 6 days
[2] = tested on: diamondback moth (Plutella xylostella); assay: Test A: control of diamondback moth, foliar spray on radish; details: sprayed at 50 ppm, neonate larvae, assessed after 6 days
[3] = tested on: tobacco budworm (Heliothis virescens); assay: Test C: control of tobacco budworm, foliar spray on cotton; details: sprayed at 50 ppm, 2-day-old larvae, assessed after 6 days
[4] = tested on: beet armyworm (Spodoptera exigua); assay: Test D: control of beet armyworm, foliar spray on corn; details: sprayed at 50 ppm, 1-day-old larvae, assessed after 6 days

Measured: feeding damage (excellent levels of plant protection)

CCNC(=O)c1cc(Cl)cc(C)c1NC(=O)c1cc(Br)nn1-c1ncccc1Cl [Compound 61]
≤ 10%: all assays above

CCNC(=O)c1cc(Br)cc(Br)c1NC(=O)c1cc(Br)nn1-c1ncccc1Cl [Compound 51]
≤ 10%: all assays above

CNC(=O)c1cc(Br)cc(Br)c1NC(=O)c1cc(C(F)(F)F)nn1-c1ncccc1Cl [Compound 7]
≤ 10%: all assays above

CCNC(=O)c1cc(Br)cc(C)c1NC(=O)c1cc(Cl)nn1-c1ncccc1Cl [Compound 71]
≤ 10%: all assays above

Cc1cc(F)cc(C(=O)NC(C)(C)C)c1NC(=O)c1cc(Br)nn1-c1ncccc1Cl [Compound 50]
≤ 10%: all assays above

CN(C)C(=O)c1cc(F)cc(Br)c1NC(=O)c1cc(Cl)nn1-c1ncccc1Cl [Compound 107]
≤ 10%: all assays above

CN(C)C(=O)c1cc(Br)cc(Cl)c1NC(=O)c1cc(Cl)nn1-c1ncccc1Cl [Compound 100]
≤ 10%: all assays above

CN(C)C(=O)c1cc(F)cc(Br)c1NC(=O)c1cc(Br)nn1-c1ncccc1Cl [Compound 104]
≤ 10%: all assays above

Cc1cc(Br)cc(C(=O)NC(C)(C)C)c1NC(=O)c1cc(OCC(F)(F)F)nn1-c1ncccc1Cl [Compound 89]
≤ 10%: all assays above

Cc1cc(Cl)cc(C(=O)NC(C)(C)C)c1NC(=O)c1cc(Cl)nn1-c1ncccc1Cl [Compound 35]
≤ 10%: all assays above

CNC(=O)c1cc(I)cc(C)c1NC(=O)c1cc(Cl)nn1-c1ncccc1Cl [Compound 72]
≤ 10%: all assays above

CNC(=O)c1cc(F)cc(Br)c1NC(=O)c1cc(Br)nn1-c1ncccc1Cl [Compound 105]
≤ 10%: all assays above

CNC(=O)c1cc(Br)cc(Br)c1NC(=O)c1cc(Cl)nn1-c1ncccc1Cl [Compound 43]
≤ 10%: all assays above

CNC(=O)c1cc(F)cc(Cl)c1NC(=O)c1cc(Br)nn1-c1ncccc1Cl [Compound 112]
≤ 10%: all assays above

Cc1cc(Br)cc(C(=O)NC(C)C)c1NC(=O)c1cc(OCC(F)(F)F)nn1-c1ncccc1Cl [Compound 83]
≤ 10%: all assays above

CCNC(=O)c1cc(I)cc(C)c1NC(=O)c1cc(Cl)nn1-c1ncccc1Cl [Compound 73]
≤ 10%: all assays above

CC(C)(C)NC(=O)c1cc(Cl)cc(Cl)c1NC(=O)c1cc(Br)nn1-c1ncccc1Cl [Compound 26]
≤ 10%: all assays above

Cc1cc(Cl)cc(C(=O)NC(C)(C)C)c1NC(=O)c1cc(Br)nn1-c1ncccc1Cl [Compound 21]
≤ 10%: all assays above

CC(C)(C)NC(=O)c1cc(Br)cc(Br)c1NC(=O)c1cc(Cl)nn1-c1ncccc1Cl [Compound 44]
≤ 10%: all assays above

Cc1cc(F)cc(C(=O)NC(C)C)c1NC(=O)c1cc(Cl)nn1-c1ncccc1Cl [Compound 68]
≤ 10%: all assays above

CCNC(=O)c1cc(Cl)cc(C)c1NC(=O)c1cc(Cl)nn1-c1ncccc1Cl [Compound 41]
≤ 10%: all assays above

Cc1cc(Br)cc(C(=O)NC(C)(C)C)c1NC(=O)c1cc(C(F)(F)F)nn1-c1ncccc1Cl [Compound 13]
≤ 10%: all assays above

CCNC(=O)c1cc(Br)cc(C)c1NC(=O)c1cc(Br)nn1-c1ncccc1Cl [Compound 54]
≤ 10%: all assays above

CN(C)C(=O)c1cc(F)cc(Cl)c1NC(=O)c1cc(Br)nn1-c1ncccc1Cl [Compound 111]
≤ 10%: all assays above

CC(C)(C)NC(=O)c1cc(Cl)cc(Cl)c1NC(=O)c1cc(C(F)(F)F)nn1-c1ncccc1Cl [Compound 10]
≤ 10%: all assays above

Cc1cc(F)cc(C(=O)NC(C)C)c1NC(=O)c1cc(C(F)(F)F)nn1-c1ncccc1Cl [Compound 15]
≤ 10%: all assays above

CNC(=O)c1cc(I)cc(C)c1NC(=O)c1cc(C(F)(F)F)nn1-c1ncccc1Cl [Compound 39]
≤ 10%: all assays above

CN(C)C(=O)c1cc(Br)cc(Br)c1NC(=O)c1cc(C(F)(F)F)nn1-c1ncccc1Cl [Compound 90]
≤ 10%: all assays above

CN(C)C(=O)c1cc(Cl)cc(Cl)c1NC(=O)c1cc(Br)nn1-c1ncccc1Cl [Compound 81]
≤ 10%: all assays above

Cc1cc(Br)cc(C(=O)NC(C)C)c1NC(=O)c1cc(Cl)nn1-c1ncccc1Cl [Compound 36]
≤ 10%: all assays above

CNC(=O)c1cc(Br)cc(Br)c1NC(=O)c1cc(Br)nn1-c1ncccc1Cl [Compound 23]
≤ 10%: all assays above

CNC(=O)c1cc(F)cc(C)c1NC(=O)c1cc(Br)nn1-c1ncccc1Cl [Compound 65]
≤ 10%: all assays above

CNC(=O)c1cc(F)cc(F)c1NC(=O)c1cc(Br)nn1-c1ncccc1Cl [Compound 131]
≤ 10%: [1] | [2]
